Reference: the supplement of paper PMC10849652
Some of the results follow.

The chains behind the UniProt entries cited, without tags or fusion partners. Where a name states a change or a piece, a line headed by the entry shows the natural chain unless it says otherwise.
UniProt Q96IK0: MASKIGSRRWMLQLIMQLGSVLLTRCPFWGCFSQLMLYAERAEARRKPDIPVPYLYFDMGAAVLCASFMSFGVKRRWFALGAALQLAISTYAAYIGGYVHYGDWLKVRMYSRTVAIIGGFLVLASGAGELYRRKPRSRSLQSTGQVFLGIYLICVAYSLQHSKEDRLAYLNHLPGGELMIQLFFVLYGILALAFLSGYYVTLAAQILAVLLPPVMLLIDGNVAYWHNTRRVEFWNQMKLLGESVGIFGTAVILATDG
UniProt Q9NVV0: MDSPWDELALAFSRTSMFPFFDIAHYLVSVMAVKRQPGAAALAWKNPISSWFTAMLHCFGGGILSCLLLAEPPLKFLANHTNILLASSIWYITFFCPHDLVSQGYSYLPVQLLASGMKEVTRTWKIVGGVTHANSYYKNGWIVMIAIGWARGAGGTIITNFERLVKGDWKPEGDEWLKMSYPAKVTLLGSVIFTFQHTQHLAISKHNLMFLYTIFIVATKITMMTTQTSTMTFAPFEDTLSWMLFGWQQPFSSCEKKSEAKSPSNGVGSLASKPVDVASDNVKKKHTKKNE
UniProt Q8NDZ6: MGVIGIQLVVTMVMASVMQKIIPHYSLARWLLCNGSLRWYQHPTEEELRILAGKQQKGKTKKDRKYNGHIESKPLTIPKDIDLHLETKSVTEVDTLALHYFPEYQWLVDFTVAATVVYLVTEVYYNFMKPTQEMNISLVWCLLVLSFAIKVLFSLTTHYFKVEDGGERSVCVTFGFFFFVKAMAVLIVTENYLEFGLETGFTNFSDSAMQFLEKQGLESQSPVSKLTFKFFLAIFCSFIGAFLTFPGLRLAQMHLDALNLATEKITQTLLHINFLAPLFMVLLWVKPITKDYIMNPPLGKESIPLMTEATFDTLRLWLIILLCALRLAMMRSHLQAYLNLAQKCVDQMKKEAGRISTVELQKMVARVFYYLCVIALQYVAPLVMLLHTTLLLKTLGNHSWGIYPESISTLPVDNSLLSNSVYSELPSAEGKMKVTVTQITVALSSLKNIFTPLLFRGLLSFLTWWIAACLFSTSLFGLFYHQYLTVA
UniProt Q0P6H9: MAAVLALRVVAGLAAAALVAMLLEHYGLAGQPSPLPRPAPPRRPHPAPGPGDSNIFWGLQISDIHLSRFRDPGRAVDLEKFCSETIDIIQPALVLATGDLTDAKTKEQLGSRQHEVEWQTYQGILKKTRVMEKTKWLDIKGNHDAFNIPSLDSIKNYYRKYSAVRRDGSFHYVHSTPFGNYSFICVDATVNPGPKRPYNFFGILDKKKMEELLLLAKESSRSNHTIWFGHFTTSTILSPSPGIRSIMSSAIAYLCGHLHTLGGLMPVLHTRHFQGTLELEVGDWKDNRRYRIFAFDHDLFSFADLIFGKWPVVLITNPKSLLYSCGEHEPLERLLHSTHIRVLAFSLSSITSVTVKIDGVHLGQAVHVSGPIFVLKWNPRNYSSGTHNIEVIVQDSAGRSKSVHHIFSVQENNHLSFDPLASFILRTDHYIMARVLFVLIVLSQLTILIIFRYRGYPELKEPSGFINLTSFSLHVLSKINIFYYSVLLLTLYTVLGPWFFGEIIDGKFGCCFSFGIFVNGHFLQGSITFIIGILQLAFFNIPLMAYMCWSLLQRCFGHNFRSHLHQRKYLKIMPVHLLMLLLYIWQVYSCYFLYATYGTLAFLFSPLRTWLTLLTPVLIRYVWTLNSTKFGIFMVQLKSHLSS
UniProt P55061, whole entry, looked up: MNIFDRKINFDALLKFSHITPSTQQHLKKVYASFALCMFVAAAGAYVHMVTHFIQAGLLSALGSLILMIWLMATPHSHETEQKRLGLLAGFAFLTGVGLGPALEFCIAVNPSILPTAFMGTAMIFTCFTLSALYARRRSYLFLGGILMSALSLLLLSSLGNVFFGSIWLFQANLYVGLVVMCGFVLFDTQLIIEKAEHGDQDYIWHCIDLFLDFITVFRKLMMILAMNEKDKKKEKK
UniProt Q9Y2S6, whole entry, looked up: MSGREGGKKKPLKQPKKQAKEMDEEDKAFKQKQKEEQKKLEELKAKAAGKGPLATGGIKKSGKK
UniProt Q96SK2: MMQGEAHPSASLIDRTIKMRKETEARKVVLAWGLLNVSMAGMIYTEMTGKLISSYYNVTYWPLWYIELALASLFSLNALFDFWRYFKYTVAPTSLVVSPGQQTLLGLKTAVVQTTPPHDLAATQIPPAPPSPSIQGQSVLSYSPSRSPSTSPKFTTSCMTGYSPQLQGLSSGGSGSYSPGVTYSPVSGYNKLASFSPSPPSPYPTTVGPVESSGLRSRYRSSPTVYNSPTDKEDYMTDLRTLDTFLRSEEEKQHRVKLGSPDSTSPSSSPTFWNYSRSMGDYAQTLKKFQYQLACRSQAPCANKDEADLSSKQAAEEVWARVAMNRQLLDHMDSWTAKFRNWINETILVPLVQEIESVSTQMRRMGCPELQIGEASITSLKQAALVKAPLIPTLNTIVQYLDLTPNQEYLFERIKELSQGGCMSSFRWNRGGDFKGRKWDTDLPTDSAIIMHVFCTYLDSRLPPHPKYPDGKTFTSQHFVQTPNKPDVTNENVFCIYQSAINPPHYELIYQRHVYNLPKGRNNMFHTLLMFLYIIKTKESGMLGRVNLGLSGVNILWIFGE
UniProt Q6NUQ4: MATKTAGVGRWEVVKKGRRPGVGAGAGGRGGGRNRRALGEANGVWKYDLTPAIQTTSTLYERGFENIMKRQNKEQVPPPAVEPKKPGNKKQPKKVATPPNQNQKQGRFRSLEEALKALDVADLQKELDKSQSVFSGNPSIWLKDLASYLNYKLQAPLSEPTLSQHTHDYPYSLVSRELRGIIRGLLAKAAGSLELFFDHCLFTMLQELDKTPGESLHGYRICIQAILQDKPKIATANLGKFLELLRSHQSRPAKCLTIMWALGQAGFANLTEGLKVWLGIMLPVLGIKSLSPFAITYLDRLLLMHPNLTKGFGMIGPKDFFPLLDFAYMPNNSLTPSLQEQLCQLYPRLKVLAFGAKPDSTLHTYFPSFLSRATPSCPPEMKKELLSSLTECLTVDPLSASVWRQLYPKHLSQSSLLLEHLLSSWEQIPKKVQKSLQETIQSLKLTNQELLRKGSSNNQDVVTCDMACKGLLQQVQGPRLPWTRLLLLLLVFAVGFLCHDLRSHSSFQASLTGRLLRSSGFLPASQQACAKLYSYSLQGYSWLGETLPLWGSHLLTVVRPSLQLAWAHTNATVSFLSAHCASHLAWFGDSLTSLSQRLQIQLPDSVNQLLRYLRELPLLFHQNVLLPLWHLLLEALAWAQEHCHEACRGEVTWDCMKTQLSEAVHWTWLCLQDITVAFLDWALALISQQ
UniProt Q7Z7N9: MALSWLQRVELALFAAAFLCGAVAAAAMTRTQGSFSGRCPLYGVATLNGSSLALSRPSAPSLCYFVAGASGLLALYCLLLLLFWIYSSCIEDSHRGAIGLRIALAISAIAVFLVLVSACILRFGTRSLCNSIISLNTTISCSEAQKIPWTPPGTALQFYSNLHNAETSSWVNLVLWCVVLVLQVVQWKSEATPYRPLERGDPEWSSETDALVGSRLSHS
UniProt Q8NCS4: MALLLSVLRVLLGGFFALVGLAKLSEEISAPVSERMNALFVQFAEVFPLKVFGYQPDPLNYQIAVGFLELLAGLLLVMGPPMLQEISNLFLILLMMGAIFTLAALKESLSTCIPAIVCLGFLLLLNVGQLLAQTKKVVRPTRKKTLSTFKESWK
UniProt O76062: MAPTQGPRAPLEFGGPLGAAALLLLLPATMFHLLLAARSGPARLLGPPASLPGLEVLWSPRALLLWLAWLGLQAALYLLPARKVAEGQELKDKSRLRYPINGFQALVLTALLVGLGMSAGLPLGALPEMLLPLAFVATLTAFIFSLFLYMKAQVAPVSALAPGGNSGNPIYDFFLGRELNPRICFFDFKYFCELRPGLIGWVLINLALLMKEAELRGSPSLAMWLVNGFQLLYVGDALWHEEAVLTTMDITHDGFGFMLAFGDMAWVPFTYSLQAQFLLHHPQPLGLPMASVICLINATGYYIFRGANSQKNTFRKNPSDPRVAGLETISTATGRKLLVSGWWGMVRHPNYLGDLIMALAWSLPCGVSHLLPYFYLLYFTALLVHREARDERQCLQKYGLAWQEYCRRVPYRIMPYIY
UniProt O75069: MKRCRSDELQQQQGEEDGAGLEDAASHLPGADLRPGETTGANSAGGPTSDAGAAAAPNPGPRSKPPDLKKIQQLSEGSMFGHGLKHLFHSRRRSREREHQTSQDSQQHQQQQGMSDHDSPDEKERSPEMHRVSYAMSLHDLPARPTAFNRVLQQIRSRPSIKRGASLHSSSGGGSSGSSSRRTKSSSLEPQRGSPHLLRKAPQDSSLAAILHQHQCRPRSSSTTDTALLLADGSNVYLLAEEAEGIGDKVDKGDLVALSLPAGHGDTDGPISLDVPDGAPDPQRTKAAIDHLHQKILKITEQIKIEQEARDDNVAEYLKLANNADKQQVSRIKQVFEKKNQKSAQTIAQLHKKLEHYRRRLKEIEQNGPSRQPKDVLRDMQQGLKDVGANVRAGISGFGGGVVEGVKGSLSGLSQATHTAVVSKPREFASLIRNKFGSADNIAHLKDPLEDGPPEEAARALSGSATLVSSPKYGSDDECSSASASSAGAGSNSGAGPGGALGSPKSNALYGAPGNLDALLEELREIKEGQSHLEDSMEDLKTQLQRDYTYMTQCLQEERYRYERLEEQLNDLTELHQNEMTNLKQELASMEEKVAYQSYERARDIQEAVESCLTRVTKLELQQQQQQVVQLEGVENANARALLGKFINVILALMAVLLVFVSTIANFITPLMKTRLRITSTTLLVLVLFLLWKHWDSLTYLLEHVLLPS
UniProt Q9H0R3: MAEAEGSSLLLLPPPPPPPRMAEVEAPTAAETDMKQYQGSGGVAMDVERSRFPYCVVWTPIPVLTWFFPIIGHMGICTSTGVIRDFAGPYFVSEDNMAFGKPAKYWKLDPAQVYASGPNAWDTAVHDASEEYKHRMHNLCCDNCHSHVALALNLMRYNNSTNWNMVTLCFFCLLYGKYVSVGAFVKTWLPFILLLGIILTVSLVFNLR
UniProt Q6UWJ1: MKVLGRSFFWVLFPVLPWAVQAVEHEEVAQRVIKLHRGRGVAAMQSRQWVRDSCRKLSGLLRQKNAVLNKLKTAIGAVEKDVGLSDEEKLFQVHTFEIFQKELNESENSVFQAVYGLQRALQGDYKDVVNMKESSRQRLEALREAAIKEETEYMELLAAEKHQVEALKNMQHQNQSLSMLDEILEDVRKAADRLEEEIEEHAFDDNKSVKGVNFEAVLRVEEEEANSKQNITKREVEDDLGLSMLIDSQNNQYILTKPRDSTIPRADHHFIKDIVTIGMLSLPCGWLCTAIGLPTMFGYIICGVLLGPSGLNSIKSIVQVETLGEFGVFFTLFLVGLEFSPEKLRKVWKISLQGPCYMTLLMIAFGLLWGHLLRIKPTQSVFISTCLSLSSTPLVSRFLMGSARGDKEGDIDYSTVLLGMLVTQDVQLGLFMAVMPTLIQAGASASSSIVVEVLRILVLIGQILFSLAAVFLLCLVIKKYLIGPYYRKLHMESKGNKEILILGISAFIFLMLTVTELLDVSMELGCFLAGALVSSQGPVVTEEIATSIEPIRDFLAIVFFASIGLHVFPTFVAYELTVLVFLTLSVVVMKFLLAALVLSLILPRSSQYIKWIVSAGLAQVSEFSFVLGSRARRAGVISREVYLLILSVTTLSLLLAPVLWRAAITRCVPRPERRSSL
UniProt Q9BSA9: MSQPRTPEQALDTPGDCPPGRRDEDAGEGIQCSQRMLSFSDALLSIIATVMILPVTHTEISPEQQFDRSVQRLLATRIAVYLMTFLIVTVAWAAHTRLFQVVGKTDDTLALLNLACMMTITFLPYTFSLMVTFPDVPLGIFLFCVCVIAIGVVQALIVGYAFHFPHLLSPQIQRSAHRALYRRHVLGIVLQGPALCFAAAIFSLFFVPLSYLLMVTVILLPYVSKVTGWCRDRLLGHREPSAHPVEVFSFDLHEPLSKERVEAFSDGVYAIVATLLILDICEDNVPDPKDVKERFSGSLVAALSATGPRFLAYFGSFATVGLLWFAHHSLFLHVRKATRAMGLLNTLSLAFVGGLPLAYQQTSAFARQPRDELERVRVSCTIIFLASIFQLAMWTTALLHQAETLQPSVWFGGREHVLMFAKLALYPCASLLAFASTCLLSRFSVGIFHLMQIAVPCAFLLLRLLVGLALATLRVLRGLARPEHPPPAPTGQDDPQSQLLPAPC
UniProt Q5T292: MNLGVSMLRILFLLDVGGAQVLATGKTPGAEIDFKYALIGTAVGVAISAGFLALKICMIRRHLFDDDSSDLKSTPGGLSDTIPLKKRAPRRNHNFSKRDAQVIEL
UniProt Q96HV5: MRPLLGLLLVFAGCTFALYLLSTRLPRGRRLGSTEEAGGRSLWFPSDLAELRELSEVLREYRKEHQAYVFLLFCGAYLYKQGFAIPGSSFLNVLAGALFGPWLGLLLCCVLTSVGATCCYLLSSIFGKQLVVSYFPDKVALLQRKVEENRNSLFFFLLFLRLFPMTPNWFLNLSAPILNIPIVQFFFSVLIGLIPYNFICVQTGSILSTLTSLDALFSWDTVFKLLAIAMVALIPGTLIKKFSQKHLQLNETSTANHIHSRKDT
UniProt P62328: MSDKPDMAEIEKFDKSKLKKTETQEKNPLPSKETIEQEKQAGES

Assays:
Assay in all cases: log2 fold change, soluble protein after heating vs DMSO (PISA); higher = thermal stabilisation; K562 cells, 10 uM, 30 min; active = over 0.2 and 3.5 SD of the protein, either way, in both replicates (recomputed)
[1] = compound: C1=CC=C(C=C1)[C@H](COC2=CC3=C(C=C2)NC(=O)N3)NC(=O)C4=CC=CN(C4=O)CC5=CC(=C(C=C5)F)F
Summary of the method: (§1)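 K562 cells at 2×10^6 cells/mL were treated with 10 μM compound for 30 min. Aliquots were heated for 3 min across 48°C-58°C, pooled, and extracted in PBS with 0.5% NP-40 at 4°C; soluble protein was the supernatant after 21,000xg for 90 min. Soluble protein was quantified by TMTpro 16plex LC-MS/MS with channel sums equalised, and reported as log2 fold change in thermal stability against DMSO controls, with values from duplicates.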

[2] = compound: CC1=C(SC2=C1C(=N[C@H](C3=NN=C(N32)C)CC(=O)N)C4=CC=C(C=C4)Cl)C
Summary of the method: as §1

[3] = compound: CC1=C2C(=CC=C1)N=C(N(C2=O)C3=CC=CC=C3C)CN4C=NC5=C(N=CN=C54)N
Summary of the method: as §1

[4] = compound: Cc1sc2c(c1C)C(c1ccc(Cl)cc1)=N[C@@H](CC(=O)OC(C)(C)C)c1nnc(C)n1-2
Summary of the method: as §1

[5] = compound: c1ccc([C@@H]2C[C@H]2NC2CCNCC2)cc1
Summary of the method: as §1

Measured: log2 fold change

TMLHE isoform 8 (UniProt Q9NVH6)
inactive: [1] -0.071 | [2] -0.002 | [3] 0.052 | [4] -0.02 | [5] 0.067

TMEM101 (UniProt Q96IK0)
inactive: [1] -0.09 | [2] 0.077 | [3] 0.087 | [4] -0.029 | [5] 0.034

TMEM87B (UniProt Q96K49)
inactive: [1] 0.04 | [2] 0.083 | [3] -0.031 | [4] -0.036 | [5] 0.012

TMEM38B (UniProt Q9NVV0)
inactive: [1] 0.017 | [2] 0.052 | [3] -0.001 | [4] 0.015 | [5] 0.015

TMEM161B (UniProt Q8NDZ6)
inactive: [1] -0.076 | [2] 0.13 | [3] 0.018 | [4] 0.092 | [5] 0.08

TMEM62 (UniProt Q0P6H9)
inactive: [1] 0.116 | [2] 0.092 | [3] 0.057 | [4] 0.016 | [5] 0.092

TMBIM6 isoform 2 (UniProt P55061)
inactive: [1] -0.037 | [2] -0.022 | [3] 0.041 | [4] -0.03 | [5] 0.041

TMA7 (UniProt Q9Y2S6)
inactive: [1] -0.053 | [2] -0.008 | [3] 0.028 | [4] -0.017 | [5] 0.006

TMEM263 (UniProt Q8WUH6)
inactive: [1] -0.152 | [2] 0.047 | [3] 0.156 | [4] -0.072 | [5] -0.031

TMEM209 (UniProt Q96SK2)
inactive: [1] -0.015 | [2] 0.037 | [3] 0.044 | [4] -0.053 | [5] -0.027

TMEM242 (UniProt Q9NWH2)
inactive: [1] 0.088 | [2] 0.06 | [3] 0.02 | [4] -0.058 | [5] 0.13

TNFRSF10B (UniProt O14763)
inactive: [1] 0.132 | [2] 0.065 | [3] 0.059 | [4] -0.071 | [5] -0.064

TMEM63B (UniProt Q5T3F8)
inactive: [1] 0.059 | [2] -0.005 | [3] -0.099 | [4] -0.036 | [5] -0.04

TMTC3 (UniProt Q6ZXV5)
inactive: [1] -0.012 | [2] 0.019 | [3] 0.011 | [4] -0.034 | [5] 0.005

TMEM248 (UniProt Q9NWD8)
inactive: [1] 0.027 | [2] -0.054 | [3] -0.032 | [4] -0.008 | [5] 0.002

TMEM63A (UniProt O94886)
inactive: [1] -0.052 | [2] 0.049 | [3] 0.036 | [4] -0.03 | [5] -0.073

TMX3 (UniProt Q96JJ7)
inactive: [1] 0.015 | [2] 0.031 | [3] 0.025 | [4] 0.017 | [5] 0

TMEM214 (UniProt Q6NUQ4)
inactive: [1] 0.023 | [2] 0.044 | [3] 0.005 | [4] -0.002 | [5] -0.024

TLR4 (UniProt O00206)
inactive: [1] 0.096 | [2] 0.003 | [3] 0.212 | [4] -0.055 | [5] 0.057

TMEM69 (UniProt Q5SWH9)
inactive: [1] -0.058 | [2] 0.117 | [4] -0.025 | [5] -0.03

TNFAIP2 (UniProt Q03169)
inactive: [1] 0.069 | [4] 0.064

TMEM59 (UniProt Q9BXS4)
inactive: [2] 0.01 | [4] 0.089 | [5] 0.035

TMEM167B (UniProt Q9NRX6)
inactive: [1] -0.018 | [3] 0.059 | [4] 0.01

TMC6 (UniProt Q7Z403)
inactive: [2] 0.057 | [3] -0.016 | [4] 0.168 | [5] -0.16

TLNRD1 (UniProt Q9H1K6)
inactive: [2] -0.021 | [4] -0.06 | [5] -0.104

TMEM179B (UniProt Q7Z7N9)
inactive: [1] -0.065 | [2] 0.081 | [4] 0.005 | [5] -0.024

TMEM104 (UniProt Q8NE00)
inactive: [2] 0.001 | [5] 0.24

TM6SF1 (UniProt Q9BZW5)
inactive: [2] 0.073 | [3] 0.243 | [4] 0.147 | [5] 0.313

TMEM35B (UniProt Q8NCS4)
inactive: [1] -0.011 | [3] 0.166 | [4] -0.253

TM7SF3 (UniProt Q9NS93)
inactive: [1] -0.058 | [2] 0.104 | [4] -0.037 | [5] 0.196

TMEM201 (UniProt Q5SNT2)
inactive: [1] -0.03 | [2] 0.174 | [4] 0.159 | [5] 0.029

TMEM268 isoform 3 (UniProt Q5VZI3)
inactive: [1] -0.008 | [2] 0 | [4] 0.151 | [5] 0.063

TM7SF2 (UniProt O76062)
inactive: [2] 0.182 | [3] -0.129 | [5] 0.159

TMEM159 isoform 2 (UniProt Q96B96)
inactive: [1] -0.205 | [4] -0.127

TMEM143 (UniProt Q96AN5)
inactive: [4] -0.138

TMCC2 (UniProt O75069)
inactive: [2] -0.025 | [5] -0.077

TMEM222 (UniProt Q9H0R3)
inactive: [1] -0.038 | [2] 0.116 | [3] -0.085 | [4] -0.026 | [5] 0.093

TMCO3 (UniProt Q6UWJ1)
inactive: [3] -0.219

TNFAIP3 (UniProt P21580)
inactive: [1] 0.098 | [2] -0.034 | [3] 0.077 | [5] -0.073

TMEM131 (UniProt Q92545)
inactive: [4] -0.023

TMEM260 (UniProt Q9NX78)
inactive: [4] 0.058

TMEM175 (UniProt Q9BSA9)
inactive: [4] -0.026

TMEM106C (UniProt Q9BVX2)
inactive: [1] 0.201 | [3] -0.263

10 successive records already listed:
TM7SF2 (UniProt O76062)
inactive: [2] 0.182 | [3] -0.129 | [5] 0.159

TMEM159 isoform 2 (UniProt Q96B96)
inactive: [1] -0.205 | [4] -0.127

TMEM143 (UniProt Q96AN5)
inactive: [4] -0.138

TMCC2 (UniProt O75069)
inactive: [2] -0.025 | [5] -0.077

TMEM222 (UniProt Q9H0R3)
inactive: [1] -0.038 | [2] 0.116 | [3] -0.085 | [4] -0.026 | [5] 0.093

TMCO3 (UniProt Q6UWJ1)
inactive: [3] -0.219

TNFAIP3 (UniProt P21580)
inactive: [1] 0.098 | [2] -0.034 | [3] 0.077 | [5] -0.073

TMEM131 (UniProt Q92545)
inactive: [4] -0.023

TMEM260 (UniProt Q9NX78)
inactive: [4] 0.058

TMEM175 (UniProt Q9BSA9)
inactive: [4] -0.026

Additional results.

TMEM237 isoform 3 (UniProt Q96Q45)
inactive: [3] -0.217 | [4] 0.162

TMEM120B (UniProt A0PK00)
inactive: [2] 0.204 | [3] -0.168 | [4] -0.178 | [5] -0.057

TMEM123 (UniProt Q8N131)
inactive: [1] 0.008 | [3] 0.029 | [4] 0.123

TMEM273 isoform 2 (UniProt Q5T292)
inactive: [3] 0.046 | [4] -0.178

TMEM79 (UniProt Q9BSE2)
inactive: [1] -0.16 | [4] -0.357

TLE5 isoform 2 (UniProt Q08117)
inactive: [2] -0.043 | [3] 0.129 | [5] -0.021

TMEM189 (UniProt A5PLL7)
inactive: [1] 0.067 | [2] 0.06 | [3] 0.013 | [4] -0.072 | [5] 0.054

TMEM129
inactive: [4] -0.09

TMEM41A (UniProt Q96HV5)
inactive: [1] 0.01 | [3] 0.06 | [4] -0.08

TMEM127 (UniProt O75204)
inactive: [2] 0.086 | [4] -0.05 | [5] 0.041

Fetched one by one from the list above, 2 records:
TMEM129
inactive: [4] -0.09

TMEM41A (UniProt Q96HV5)
inactive: [1] 0.01 | [3] 0.06 | [4] -0.08

Continued.

TMEM184B (UniProt Q9Y519)
inactive: [1] 0.04 | [4] 0.041

TMCC1 (UniProt O94876)
inactive: [2] 0.071 | [5] -0.032

TNFRSF1A (UniProt P19438)
inactive: [2] -0.223 | [4] 0.105 | [5] -0.234

TMSB4X (UniProt P62328)
inactive: [1] 0.203 | [2] 0.069 | [3] 0.128 | [5] 0.261
